Data reported in patent US20260176378A1.
These are yes or no findings as the source states them, for the method shown. Binding calls can cover weak binding; strength is not graded here.

Biological target: human plasma kallikrein (human)
Assay: Biacore, IgG captured on anti-human Fc, 100 nM pKal

binding	Binder
binds	X67-D03 (antibody, human IgG1, V domains shown) VH: EVQLLESGGGLVQPGGSLRLSCAASGFTFSAYSMIWVRQAPGKGLEWVSYIRPSGGRTTYADSVKGRFTISRDNSKNTLYLQMNSLRAEDTAVYYCARGGLLLWNRELKSNYFDYWGQGTLVTVSS VL: DIQMTQSPSSLSAFVGDRVTITCRASQPIDNYLNWYHQKPGKAPKLLIYAASRLQSGVPSRLSGSGFGTDFTLTISSLQPEDFGNYYCQQSYTVPYTFGGGTKVEIR
binds	X81-B01 (antibody, V domains shown) VH: EVQLLESGGGLVQPGGSLRLSCAASGFTFSHYLMTWVRQAPGKGLEWVSYISPSGGHTIYADSVKGRFTISRDNSKNTLYLQMNSLRAEDTAVYYCARVARGIAARSRTSYFDYWGQGTLVTVSS VL: EIVLTQSPGTLSLSPGERATLSCRTSQFVNSNYLAWYQQKPGQAPRLLIYGASSRATGIPDRFSGSGSGTDFTLTISRLEPEDFAVYYCQQSSRTPWTFGQGTKVEIK
